Test results from the supplement of paper PMC8256030.
Values joined by “and” are separate entries in the source; they are usually repeats but may differ in a detail not shown here. Equal entries are not always repeated. Some of the results follow. Single values are uncertain here, since repeats match poorly.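 HEK293T cells were given each compound shortly before transfection with a reporter in which red mCherry is followed by the SARS-CoV-2 frameshift element and then GFP in the −1 frame, so GFP appears only after frameshifting.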

Test system: SARS-CoV-2 -1 PRF reporter mCherry-FSE-GFP(-1)
Experiment: mCherry (red) intensity as percent of control; higher = higher upstream reporter expression
Details: 10 µM; 24 h; HEK293T

SMILES | mCherry
CCNC(=O)CCC/C=C\C[C@@H]1[C@@H](/C=C/[C@@H](O)CCc2ccccc2)[C@H](O)C[C@@H]1O [bimatoprost] | 104%
CCC/C=C\C=C/C(=O)N[C@@H](CC(N)=O)C(=O)NC(CC(N)=O)C(=O)N[C@@H](C(=O)N[C@H](CCCN)C(=O)N[C@@H](C(=O)N[C@@H](C(=O)N[C@@H](C(=O)N[C@H](C(=O)N[C@@H](Cc1ccccc1)C(=O)N[C@H](CCCN)C(=O)NC(C(=O)N[C@H](C(=O)NC(C(=O)NCC(=O)N[C@@H](CC(C)C)C(=O)N[C@H](C)C(=O)NC(C(=O)O)C1CCC(O)C(Cl)C1)C1CCC(O)CC1)[C@H](C)O)C1CCC(O)CC1)[C@H](C)O)C1CCC(O)CC1)C1CCC(O)CC1)[C@H](C)O)C1CCC(O)CC1 (stereo partly drawn) | 95.6%
Nc1nc(/C(=C/CC(=O)O)C(=O)N[C@@H]2C(=O)N3C(C(=O)O)=CCS[C@H]23)cs1 [Cedax] | 104%
COc1cc2c(cc1OC)C(=O)C(CC1CCN(Cc3ccccc3)CC1)C2 (stereo not drawn) | 86.7%
O=C(O)Cn1c(=O)n(Cc2ccc(Br)cc2F)c(=O)c2ccc(Cl)cc21 [zenarestat] | 95.2%
c1ccc(CN(CCN2CCCC2)c2ccccc2)cc1 [histapyrrodine] | 71.1%
COc1ccc([C@]2(C#N)CC[C@@H](C(=O)O)CC2)cc1OC1CCCC1 [cilomilast] | 70.7%
Cc1ccc(S(=O)(=O)NC(=O)NN2CC3CCCC3C2)cc1 (stereo not drawn) [gliclazide] | 97.3% and 78.2%
Nc1ccc(S(=O)(=O)Nc2ncccn2)cc1 [sulfadiazine sodium] | 94.9%
C=C[C@H]1CN2CC[C@H]1C[C@H]2[C@H](O)c1ccnc2ccc(OC)cc12 [Aflukin] | 128%
CC(=O)N[C@H]1[C@H](O[C@H]2[C@H](O)[C@@H](NC(C)=O)C(O)O[C@@H]2CO)O[C@H](CO)[C@@H](O)[C@@H]1O (stereo partly drawn) | 102%
CN[C@H]1CC[C@@H](c2ccc(Cl)c(Cl)c2)c2ccccc21 [sertraline] | 105%
NC(=O)NS(=O)(=O)c1ccc(N)cc1 [sulfacarbamide] | 96.9%
C=CCN1C(=O)C(CC(C)C)NC1=S (stereo not drawn) [albutoin] | 117%
O=C1NC(=O)C(Cc2ccc3cc(OCc4ccccc4F)ccc3c2)S1 (stereo not drawn) [netoglitazone] | 93.6%
CCN(CC)CC#CCOC(=O)C(O)(c1ccccc1)C1CCCCC1 (stereo not drawn) | 98.5%
Cc1cccc(C)c1OCC(=O)N[C@@H](Cc1ccccc1)[C@@H](O)C[C@H](Cc1ccccc1)NC(=O)[C@H](C(C)C)N1CCCNC1=O [lopinavir] | 103%
CCN(CC)CCCN1c2ccccc2Sc2ccc(Cl)cc21 [chlorproethazine] | 52.5%
COC[C@H]1O[C@@H](OC2OC[C@@H]3O[C@]4(O[C@H]3[C@H]2OC(=O)C(C)C)O[C@H](C)[C@@](O)(C(C)=O)[C@@H]2OCO[C@H]24)[C@@H](OC)[C@@H](O)[C@@H]1O[C@@H]1O[C@H](C)[C@H](OC)[C@H](O[C@H]2C[C@@]3(C)OC4(C[C@@H](O)[C@H](O[C@H]5C[C@@H](O)[C@H](OC(=O)c6c(C)c(Cl)c(O)c(Cl)c6OC)[C@@H](C)O5)[C@@H](C)O4)O[C@@H]3[C@@H](C)O2)[C@H]1O (stereo partly drawn) [avilamycin] | 128%
CN(C)CCCN1c2ccccc2Sc2ccccc21 [promazine] | 114%
CCCCCCCCCCCCCC[n+]1ccc(C)cc1 [miripirium] | 197%
O=C1Nc2ccc(Cl)cc2[C@@](C#CC2CC2)(C(F)(F)F)O1 [efavirenz] | 90.8%
C[N+]1(C)[C@@H]2CC[C@H]1C[C@@H](OC(=O)C(O)c1ccccc1)C2 (stereo partly drawn) [homatropine methylbromide] | 102% and 110%
C[N+]12CCCCC1CCC(=C(c1cccs1)c1cccs1)C2 (stereo not drawn) [tiquizium bromide] | 125%
COc1ccc2c(O[C@@H]3C[C@H]4C(=O)N[C@]5(C(=O)O)C[C@@H]5/C=C\CCCCC[C@H](NC(=O)OC5CCCC5)C(=O)N4C3)cc(-c3csc(NC(=O)C(C)C)n3)nc2c1C | 42.1%
CCC(=O)O[C@]1(C(=O)SCF)[C@H](C)C[C@H]2[C@@H]3C[C@H](F)C4=CC(=O)C=C[C@]4(C)[C@@]3(F)[C@@H](O)C[C@@]21C | 103%
C[N+]1(C)CCC(=C(c2ccccc2)c2ccccc2)CC1 [diphemanil metilsulfate] | 110%
O=[N+]([O-])c1ccc(S(=O)(=O)Nc2nccs2)cc1 [nitrosulfathiazole] | 92.4%

2 records picked at random from the list so far:
SMILES | mCherry
COc1ccc([C@]2(C#N)CC[C@@H](C(=O)O)CC2)cc1OC1CCCC1 [cilomilast] | 70.7%
C[N+]1(C)[C@@H]2CC[C@H]1C[C@@H](OC(=O)C(O)c1ccccc1)C2 (stereo partly drawn) [homatropine methylbromide] | 102% and 110%
